PubChem BioAssay AID1259405, NCATS – 2018

Assay: 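Mouse-designed siRNAs used to find CHO productivity engineering targets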 (primary screen)
Cells: Chinese hamster CHO-K1 ovary cells with stable secreted eGFP expression
Reagent: single siRNA against mouse genes, 0.8 pmol siRNA per well (2 µl of 400 nM stock)
Duration: 3 days
Detection: 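Per-well intracellular GFP measured by laser scanning cytometry, plus viability from ATP luminescence, each relative to plate median of non-targeting control wells, in %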
Direction: GFP, % of control: higher = more GFP per well, higher productivity; viability (ATP), % of control: higher = more viable cells (more ATP)
Hit rule: 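Called active when intracellular GFP, relative to negative control, is at or above 120%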
This is a random part of about 50,000 deposited reagents. About 4,000 of all reagents (8%) count as active. 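Mouse siRNA library applied to hamster cells; one well for each siRNA.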 Reagent sequences are not shown.

Mvp [SID363562365] | GFP, % of control: 61.8; viability (ATP), % of control: 62.8; Outcome: inactive
Mvp [SID363567503] | GFP, % of control: 70.4; viability (ATP), % of control: 86.3; Outcome: inactive
Mvp [SID363584860] | GFP, % of control: 63; viability (ATP), % of control: 75; Outcome: inactive
Sidt1 [SID363546788] | GFP, % of control: 61.1; viability (ATP), % of control: 44.3; Outcome: inactive
Sidt1 [SID363548544] | GFP, % of control: 83.5; viability (ATP), % of control: 99.1; Outcome: inactive
Sidt1 [SID363560722] | GFP, % of control: 118; viability (ATP), % of control: 93.2; Outcome: inactive
Or6f1 [SID363544570] | GFP, % of control: 72.3; viability (ATP), % of control: 85.4; Outcome: inactive
Or6f1 [SID363550898] | GFP, % of control: 98.6; viability (ATP), % of control: 77; Outcome: inactive
Or6f1 [SID363557447] | GFP, % of control: 63; viability (ATP), % of control: 62.3; Outcome: inactive
Map3k12 [SID363570717] | GFP, % of control: 91.8; viability (ATP), % of control: 79.6; Outcome: inactive
Atp6v1g1 [SID363569966] | GFP, % of control: 91.9; viability (ATP), % of control: 63.1; Outcome: inactive
Atp6v1g1 [SID363577006] | GFP, % of control: 93.4; viability (ATP), % of control: 79.5; Outcome: inactive
Atp6v1g1 [SID363578414] | GFP, % of control: 30.9; viability (ATP), % of control: 22.6; Outcome: inactive
Cpne5 [SID363550089] | GFP, % of control: 73.4; viability (ATP), % of control: 76.9; Outcome: inactive
Cpne5 [SID363564598] | GFP, % of control: 52.3; viability (ATP), % of control: 80.2; Outcome: inactive
Cpne5 [SID363588143] | GFP, % of control: 108; viability (ATP), % of control: 130; Outcome: inactive
Or1o2 [SID363545072] | GFP, % of control: 40.8; viability (ATP), % of control: 45.1; Outcome: inactive
Or1o2 [SID363551400] | GFP, % of control: 73.5; viability (ATP), % of control: 70.5; Outcome: inactive
Or1o2 [SID363557949] | GFP, % of control: 69.5; viability (ATP), % of control: 57.6; Outcome: inactive
Amot [SID363546610] | GFP, % of control: 70.9; viability (ATP), % of control: 55.6; Outcome: inactive
Amot [SID363548366] | GFP, % of control: 71.6; viability (ATP), % of control: 58.3; Outcome: inactive
Amot [SID363560544] | GFP, % of control: 80.3; viability (ATP), % of control: 84.2; Outcome: inactive

Next part, starting with the last 5 of the part before.
Or1o2 [SID363551400] | GFP, % of control: 73.5; viability (ATP), % of control: 70.5; Outcome: inactive
Or1o2 [SID363557949] | GFP, % of control: 69.5; viability (ATP), % of control: 57.6; Outcome: inactive
Amot [SID363546610] | GFP, % of control: 70.9; viability (ATP), % of control: 55.6; Outcome: inactive
Amot [SID363548366] | GFP, % of control: 71.6; viability (ATP), % of control: 58.3; Outcome: inactive
Amot [SID363560544] | GFP, % of control: 80.3; viability (ATP), % of control: 84.2; Outcome: inactive
Or7g34 [SID363554576] | GFP, % of control: 93.9; viability (ATP), % of control: 89.8; Outcome: inactive
Or7g34 [SID363568023] | GFP, % of control: 26.2; viability (ATP), % of control: 17.5; Outcome: inactive
Or7g34 [SID363586082] | GFP, % of control: 91.5; viability (ATP), % of control: 99.7; Outcome: inactive
Pex13 [SID363582391] | GFP, % of control: 77.4; viability (ATP), % of control: 97.7; Outcome: inactive
Pex13 [SID363584151] | GFP, % of control: 64.2; viability (ATP), % of control: 69.2; Outcome: inactive
Pex39 [SID363543623] | GFP, % of control: 41.3; viability (ATP), % of control: 53; Outcome: inactive
Pex39 [SID363553116] | GFP, % of control: 55.9; viability (ATP), % of control: 60.3; Outcome: inactive
Pex39 [SID363558964] | GFP, % of control: 94.7; viability (ATP), % of control: 95.7; Outcome: inactive
Arhgap15 [SID363545300] | GFP, % of control: 124; viability (ATP), % of control: 92.9; Outcome: active
Arhgap15 [SID363548813] | GFP, % of control: 67.5; viability (ATP), % of control: 86.6; Outcome: inactive
Arhgap15 [SID363562619] | GFP, % of control: 59.6; viability (ATP), % of control: 38.9; Outcome: inactive
Zdhhc6 [SID363556636] | GFP, % of control: 89.3; viability (ATP), % of control: 74.1; Outcome: inactive
Zdhhc6 [SID363563540] | GFP, % of control: 96.8; viability (ATP), % of control: 74.1; Outcome: inactive
Zdhhc6 [SID363587086] | GFP, % of control: 56.1; viability (ATP), % of control: 53.8; Outcome: inactive
Socs5 [SID363582540] | GFP, % of control: 98.1; viability (ATP), % of control: 136; Outcome: inactive
Socs5 [SID363584300] | GFP, % of control: 86.3; viability (ATP), % of control: 88.6; Outcome: inactive
Ggnbp1 [SID363540146] | GFP, % of control: 74.9; viability (ATP), % of control: 116; Outcome: inactive
Ggnbp1 [SID363561447] | GFP, % of control: 108; viability (ATP), % of control: 131; Outcome: inactive
Ggnbp1 [SID363564483] | GFP, % of control: 29.1; viability (ATP), % of control: 17.4; Outcome: inactive
Slc22a15 [SID363547792] | GFP, % of control: 96.8; viability (ATP), % of control: 63.2; Outcome: inactive
Slc22a15 [SID363558561] | GFP, % of control: 67; viability (ATP), % of control: 70; Outcome: inactive
Slc22a15 [SID363560319] | GFP, % of control: 85; viability (ATP), % of control: 98.8; Outcome: inactive
Slc22a15 [SID363574859] | GFP, % of control: 97; viability (ATP), % of control: 69.5; Outcome: inactive
Slc22a15 [SID363575915] | GFP, % of control: 60.1; viability (ATP), % of control: 59.8; Outcome: inactive
Slc22a15 [SID363580491] | GFP, % of control: 81; viability (ATP), % of control: 79.9; Outcome: inactive
Abcc1 [SID363574606] | GFP, % of control: 99.5; viability (ATP), % of control: 124; Outcome: inactive
Abcc1 [SID363575662] | GFP, % of control: 70; viability (ATP), % of control: 76.3; Outcome: inactive
Abcc1 [SID363580238] | GFP, % of control: 82.3; viability (ATP), % of control: 66.5; Outcome: inactive
Il21r [SID363544048] | GFP, % of control: 61.7; viability (ATP), % of control: 36.8; Outcome: inactive
Il21r [SID363550376] | GFP, % of control: 72.5; viability (ATP), % of control: 58.4; Outcome: inactive
Il21r [SID363556925] | GFP, % of control: 70.2; viability (ATP), % of control: 63.3; Outcome: inactive
